Measurements from PubChem BioAssay AID504834 (National Center for Advancing Translational Sciences (NCATS), 2011).
In all, about 320,000 compounds went through this assay and about 22,000 (6.9%) were called active. Inconclusive means that the source gave no clear call. Such entries were picked first, then a sample of the others. Calls follow the shape of the dose curve; as a rule, active = well fitted inhibition curve with a large enough effect; inconclusive = small, poorly fitted or top-dose-only effect, or another doubt; inactive = no such curve, though single readings can be large or run the other way. Where the call is inconclusive, the potency comes from a doubtful curve fit.
Potency is read from the fitted curve at half-maximal effect.

Test: Primary qHTS for delayed death inhibitors of the malarial parasite plastid, 96 hour incubation
Conditions: P. falciparum luciferase reporter growth; series mostly up to 28.7 µM
Summary of the method: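 Parasite growth measured via integrated firefly luciferase reporter in P. falciparum. Infected erythrocytes at 2% hematocrit, 0.05% parasitemia final were treated 96 hours at 37 C under 5% CO2, and luminescence was read.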
In the case of `CSc1cccc(NC(=O)COc2ccccc2C)c1`, the Potency is reported as “inactive”.
For `CCOC(=O)C(C)Oc1cccc2c(=O)n(CC(=O)N3CCN(C(=O)OCC)CC3)ccc12` (configuration not stated), the Potency was “inactive”.
With `COc1cc(SC)ccc1C(=O)N(CC(=O)Nc1ccccc1Br)Cc1ccco1` the Potency was inconclusive: 14.7 µM [inhibitor, single point].
With `O=C(CNC(=O)c1cccs1)N/N=C/c1ccco1` the Potency was “inactive”.
With `CC1=NN(c2nc(-c3ccc(Cl)cc3)cs2)C(=O)C1` the Potency was “inactive”.
For `Cc1oc2c(cc(NS(=O)(=O)c3ccc4c5c(cccc35)C(=O)N4)c3ccccc32)c1C(=O)OC(C)C`, the Potency was “inactive”.
With `CC(=O)c1ccc(Sc2nnc(C)s2)c([N+](=O)[O-])c1` the Potency was inconclusive: 10.4 µM [inhibitor, single point].
For `COc1ccc(-c2nn(C)c(=O)c3ccccc23)cc1NC(=O)COc1ccc(C)cc1`, the Potency was “inactive”.
With `Cc1sc(NC(=O)Cn2nc(C(F)(F)F)cc2C)c(C(=O)OC(C)C)c1C` the Potency was inconclusive: 5.86 µM [inhibitor, partial curve, poor fit].
With `CC(=O)N(Cc1cc2ccc(C)c(C)c2n2nnnc12)C1CCCC1` the Potency was inconclusive: 18.5 µM [inhibitor, single point].
With `C=CCN=C1CCCc2c1[nH]c1ccc(C)cc21` the Potency was “inactive”.
With `COc1cc(OC)cc(C(=O)NCC(=O)NCCN2C(=O)S/C(=C\c3ccccc3Cl)C2=O)c1` the Potency was inconclusive: 10.4 µM [inhibitor, single point].
For `CCOC(=O)c1cnc(SCc2nc(N)nc(Nc3ccc(OC)cc3)n2)nc1N`, the Potency was inconclusive: 18.5 µM [inhibitor, single point].
For `COc1c(C)cc(C(=O)C2CCCN(C(=O)c3snnc3C)C2)cc1C` (configuration not stated), the Potency was inconclusive: 10.4 µM [inhibitor, single point].
In the case of `Cc1cc(C)n2nc(C(=O)Nc3cccc(S(=O)(=O)N4CCOCC4)c3)nc2n1`, the Potency is reported as inconclusive: 14.7 µM [inhibitor, single point].
In the case of `COc1ccc2cc3cc(C(=O)NCc4ccc5c(c4)OCO5)oc3nc2c1`, the Potency is reported as “inactive”.
With `O=C(COC(=O)CCC(=O)Nc1nccs1)NCc1ccco1` the Potency was inconclusive: 18.5 µM [inhibitor, single point].
In the case of `O=C(COc1ccccc1Cl)NCCCNC(=O)c1ccco1`, the Potency is reported as “inactive”.
With `CCCCCCCN1CCC(=O)N([C@H](CO)Cc2ccccc2)CC1` the Potency was inconclusive: 18.5 µM [inhibitor, single point].
In the case of `CCC(C)(C(=O)NC1CCCC1)N(C(C)=O)c1ccc(C)cc1` (configuration not stated), the Potency is reported as inconclusive: 2.33 µM [inhibitor, partial curve, poor fit].
In the case of `Cc1ccc(N2CC(C(=O)N3CCC(C(=O)NCCCOC(C)C)CC3)CC2=O)cc1` (configuration not stated), the Potency is reported as inconclusive: 18.5 µM [inhibitor, single point].
With `N#Cc1c(OCC(=O)c2ccccc2)nc2c(c1-c1ccco1)CCc1ccccc1-2` the Potency was inconclusive: 2.33 µM [inhibitor, partial curve, poor fit].
With `Cn1c(N2CCCC2)nc2c1c(=O)n(Cc1ccc(Cl)cc1)c(=O)n2C` the Potency was inconclusive: 2.94 µM [inhibitor, partial curve].
With `Cn1c(COc2ccc(Cl)cc2)nnc1SCC(=O)NC1CC1` the Potency was inconclusive: 9.28 µM [inhibitor, partial curve].
With `CC(=O)N/C(=C\c1ccccc1)C(=O)OCc1ccc(F)cc1` the Potency was “inactive”.
In the case of `Cn1c(=O)[nH]c(=O)c2c1nc(N1CCCC1)n2CCSc1nc2ccccc2[nH]1`, the Potency is reported as “inactive”.
In the case of `Cc1ccc(-c2onc3ccc(Br)cc23)cc1`, the Potency is reported as “inactive”.
With `COc1ccccc1C(=O)Nc1ccc(OCC(=O)N2CCCCC2)cc1` the Potency was “inactive”.
In the case of `CCCC(=O)N1CCN(c2ccc(NC(=S)NC(=O)CC)cc2)CC1`, the Potency is reported as “inactive”.
With `CCN(CC)CCCNC(=O)/C=C/C(=O)O` the Potency was “inactive”.
In the case of `CCOc1ccc(NC(=O)C2=NN(c3ccccc3)C(=O)CC2)cc1S(=O)(=O)N1CCCCC1`, the Potency is reported as inconclusive: 6.57 µM [inhibitor, partial curve].
With `O=C(COC(=O)c1ccccc1F)c1ccc(-n2nncc2-c2ccco2)cc1` the Potency was inconclusive: 18.5 µM [inhibitor, single point].
In the case of `CCCc1cc(-c2n[nH]c(=S)n2CC(C)C)cs1`, the Potency is reported as “inactive”.
With `CC(C)(C)c1ccc(Oc2ccc(NC(=O)c3ccco3)cn2)cc1` the Potency was active: 8.28 µM.
In the case of `COc1ccc(NC(=O)CCOc2ccc(C)cc2)cc1S(=O)(=O)N1CCOCC1`, the Potency is reported as inconclusive: 2.08 µM [inhibitor, partial curve].
With `CCOc1ccc2nc(N3CCC(C(=O)N4CCN(C(=O)c5ccco5)CC4)CC3)sc2c1` the Potency was inconclusive: 16.5 µM [inhibitor, partial curve, poor fit].
In the case of `COc1ccccc1NS(=O)(=O)c1ccc2oc(SCc3ccc(F)cc3)nc2c1`, the Potency is reported as inconclusive: 7.38 µM [inhibitor, partial curve, poor fit].
In the case of `COc1ccc(C(CNC(=O)Nc2ccccc2)N2CCN(C)CC2)cc1` (configuration not stated), the Potency is reported as “inactive”.
With `COc1cccc(-n2c(SCC(=O)O)nnc2-c2cccnc2)c1` the Potency was inconclusive: 9.28 µM [inhibitor, single point].
With `CCOc1ccc(S(=O)(=O)N2CCCCC2)cc1NC(=O)Cc1ccccc1` the Potency was inconclusive: 6.57 µM [inhibitor, partial curve].
In the case of `Cc1[nH]c2ccccc2c1C1=CCNCC1`, the Potency is reported as “inactive”.
With `Oc1ccc(/C=N/N(Cc2ccccc2)c2ccccc2)c(O)c1O` the Potency was inconclusive: 18.5 µM [inhibitor, partial curve, poor fit].
With `CCCSc1nc(C)cc(C)c1S(=O)(=O)c1ccccc1C` the Potency was inconclusive: 18.5 µM [inhibitor, single point].
For `Cc1c(C#N)c(NC(=O)c2cccc(Cl)c2)n(Cc2ccccc2)c1C`, the Potency was active: 13.1 µM.
For `O=C(CN1C2CCCC1CC(NC(=O)c1ccccc1)C2)Nc1nccs1` (configuration not stated), the Potency was active: 9.28 µM.
With `Cc1ccccc1NC(=O)N1CCCC1C(=O)NCc1cccs1` (configuration not stated) the Potency was inconclusive: 18.5 µM [inhibitor, single point].
For `CCO[C@H]1OC(C(=O)N2CCOCC2)=C[C@@H](c2ccc(Br)cc2)[C@@H]1CCCO`, the Potency was inconclusive: 18.5 µM [inhibitor, single point].
With `CCCn1nnc(NC(=O)c2cc3ccccc3o2)n1` the Potency was “inactive”.
With `CC1CC(c2ccccc2)NS(=O)(=O)O1` (configuration not stated) the Potency was “inactive”.
In the case of `CCOC(=O)c1ccc(NC(=O)c2cc(OC)c(OC)c(OC)c2Br)cc1`, the Potency is reported as inconclusive: 18.5 µM [inhibitor, single point].
For `O=C1N=C(N2CCCCC2)SC1=C1CCCC1`, the Potency was “inactive”.
With `COc1ccc(CCNC(=O)C2CCC(=O)N(C3CC3)C2)c(OC)c1` (configuration not stated) the Potency was inconclusive: 9.28 µM [inhibitor, partial curve, poor fit].
In the case of `Cc1cccc(C(=O)N[C@H](C(=O)Nc2nc3ccccc3[nH]2)C(C)C)c1`, the Potency is reported as inconclusive: 0.294 µM [inhibitor, partial curve, poor fit].
With `CCOC(=O)CSc1nnc2n1C(C)(C)Cc1ccccc1-2` the Potency was inconclusive: 18.5 µM [inhibitor, single point].
For `CNCc1nc2ccccc2[nH]1`, the Potency was inconclusive: 11.7 µM [inhibitor, single point].
In the case of `CC(Oc1cc2oc(=O)c3c(c2cc1Cl)CCC3)C(=O)NCc1cccnc1` (configuration not stated), the Potency is reported as inconclusive: 20.8 µM [inhibitor, single point].
With `Brc1ccc(-c2n(-c3ccccn3)c3ccccc3[n+]2-c2ccccn2)cc1` the Potency was inconclusive: 10.4 µM [inhibitor, partial curve].
In the case of `CCOc1ccc(S(=O)(=O)N(CC)CC(=O)NCc2cccnc2)cc1`, the Potency is reported as active: 11.7 µM.
With `O=C(NCc1ccco1)c1cc([N+](=O)[O-])ccc1N1CCCCC1` the Potency was inconclusive: 13.1 µM [inhibitor, partial curve, poor fit].
For `CC/C(O)=C1\C(=O)CC(c2ccccc2)CC1=NC(C)C` (configuration not stated), the Potency was inconclusive: 6.57 µM [inhibitor, partial curve, poor fit].
With `COc1cc(/C(C)=N/NC(=O)c2nnn(-c3nonc3N)c2-c2cccs2)ccc1O` the Potency was inconclusive: 18.5 µM [inhibitor, single point].
For `CNC(=S)N/N=C(\C)c1cccc([N+](=O)[O-])c1`, the Potency was “inactive”.
In the case of `C=CCn1c(P(=O)(O)c2ccccc2)nc2ccccc21`, the Potency is reported as inconclusive: 0.0415 µM [inhibitor, full curve, poor fit].
With `O=C(CSCc1c(F)cccc1Cl)NCc1cccnc1` the Potency was inconclusive: 18.5 µM [inhibitor, single point].
For `COc1ccc2nc(C)cc(Sc3nc4ccccc4s3)c2c1`, the Potency was inconclusive: 14.7 µM [inhibitor, single point].
With `Cc1cc(C)c(S(=O)(=O)N2CCN(CCN3C(=O)c4cccc5cccc(c45)C3=O)CC2)cc1[N+](=O)[O-]` the Potency was inconclusive: 7.38 µM [inhibitor, partial curve, poor fit].
For `CCOc1cccc(N2CCN(CCNC(=O)Nc3ccc(C)cc3)CC2)c1C`, the Potency was “inactive”.
In the case of `Cc1noc(/C=C/c2cccnc2)c1[N+](=O)[O-]`, the Potency is reported as inconclusive: 4.15 µM [inhibitor, single point].
For `CSc1nnc(-c2ccc(NC(=O)CCc3ccccc3)cc2)n1C`, the Potency was inconclusive: 11.7 µM [inhibitor, single point].
With `CC1CCN(C(=O)c2cc(Cl)ccc2NC(=O)c2ccco2)CC1` the Potency was active: 2.33 µM.
In the case of `Cc1ccc(NC(=O)Cc2ccc(Cl)cc2)cc1S(=O)(=O)N1CCCCCC1`, the Potency is reported as inconclusive: 10.4 µM [inhibitor, single point].
For `CN1CCCCC1=NCCCn1cnc2c1c(=O)n(C)c(=O)n2C`, the Potency was “inactive”.
